Structures can show the parent of a compound that is named as a salt. This is one part of the list. Hit calls seldom repeat between salt and free forms of one compound.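 In K562 cells expressing nanoluciferase-fused kinases, luminescence was recorded at 4 h intervals between 2 and 18 h, normalized as percent of control with DMSO at 100% and a positive control at 0%. A significant (2 sigma) signal drop marks a time point as decreased. The authors' rule for a hit is not shown and takes in more than the number of time points.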
target: MAP4K2 (UniProt Q12851); assay: kinase-Nluc reporter destabilization hit call (1 = scored as downregulated) (binary); higher = compound decreases kinase abundance; conditions: 10 µM; K562; 2-18 h

The chains behind the UniProt entries cited, without tags or fusion partners. Where a name states a change or a piece, a line headed by the entry shows the natural chain unless it says otherwise.
UniProt Q12851: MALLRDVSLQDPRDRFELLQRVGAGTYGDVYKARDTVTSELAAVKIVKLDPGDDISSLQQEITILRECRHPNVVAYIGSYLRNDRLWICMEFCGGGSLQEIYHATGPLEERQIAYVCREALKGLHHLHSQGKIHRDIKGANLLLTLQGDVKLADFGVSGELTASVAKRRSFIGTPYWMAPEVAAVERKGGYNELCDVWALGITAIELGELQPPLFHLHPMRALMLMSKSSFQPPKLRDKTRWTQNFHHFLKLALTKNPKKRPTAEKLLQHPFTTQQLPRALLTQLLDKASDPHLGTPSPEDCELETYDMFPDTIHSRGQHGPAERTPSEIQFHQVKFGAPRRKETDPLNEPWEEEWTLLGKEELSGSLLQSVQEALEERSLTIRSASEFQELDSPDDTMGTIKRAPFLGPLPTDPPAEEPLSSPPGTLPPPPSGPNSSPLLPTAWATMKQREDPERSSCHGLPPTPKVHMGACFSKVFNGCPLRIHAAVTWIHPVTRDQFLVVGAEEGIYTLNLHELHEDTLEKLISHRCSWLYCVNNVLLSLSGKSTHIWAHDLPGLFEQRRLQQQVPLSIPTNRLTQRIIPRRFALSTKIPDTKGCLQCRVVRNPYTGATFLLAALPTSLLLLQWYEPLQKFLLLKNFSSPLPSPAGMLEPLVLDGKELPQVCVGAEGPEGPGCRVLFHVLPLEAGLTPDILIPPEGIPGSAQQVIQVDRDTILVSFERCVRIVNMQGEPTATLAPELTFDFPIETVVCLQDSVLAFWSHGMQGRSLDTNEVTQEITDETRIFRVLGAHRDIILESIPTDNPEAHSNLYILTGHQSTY

SMILES	kinase-Nluc reporter destabilization hit call
COc1nccc(-c2c(-c3ccc(F)cc3)ncn2C2CCNCC2)n1	inactive: 0
COc1ccc(-c2c[nH]c3nccc(-c4ccsc4)c23)c(OC)c1	inactive: 0
C[C@@]1(C(=O)Nc2ccc(F)nc2)CCCN1c1nc(Nc2cc(C3CC3)n[nH]2)c2cccn2n1	inactive: 0
Cc1ccc(Nc2nccc(N(C)c3ccc4c(C)n(C)nc4c3)n2)cc1S(N)(=O)=O [Pazopanib]	inactive: 0
Cc1cc2c(F)c(Oc3ncnn4cc(OC[C@@H](C)O)c(C)c34)ccc2[nH]1 [Brivanib]	inactive: 0
N#CC(=Cc1cc(Cl)cc(Cl)c1)c1cccnc1	inactive: 0
C=CC(=O)Nc1cc2c(Nc3ccc(F)c(Cl)c3)ncnc2cc1OCCCN1CCOCC1 [Canertinib]	inactive: 0
Cc1ccc(Nc2nccc(N(C)c3ccc4c(C)n(C)nc4c3)n2)cc1S(N)(=O)=O [Pazopanib (Hydrochloride)]	inactive: 0
CC(C)(C)n1nc(-c2ccc(Cl)cc2)c2c(N)ncnc21	inactive: 0
COc1cc2ncnc(Nc3ccc(F)c(Cl)c3)c2cc1OCCCN1CCOCC1 [Gefitinib]	inactive: 0
O=C(Nc1cccc(Cl)c1)Nc1ncc(CCNc2ncnc3ccsc23)s1 [SNS-314 (mesylate)]	inactive: 0
CC[C@@H]1C(=O)N(C)c2cnc(Nc3ccc(C(=O)NC4CCN(C)CC4)cc3OC)nc2N1C1CCCC1	inactive: 0
CC#CC(=O)N1CCC[C@H]1c1nc(-c2ccc(C(=O)Nc3ccccn3)cc2)c2c(N)nccn12 [Acalabrutinib]	inactive: 0
O=S(=O)(c1cccc2c(O)nccc12)N1CCCNCC1 [Hydroxyfasudil (hydrochloride)]	inactive: 0
O=C1Cc2c([nH]c3ccc(Br)cc23)-c2ccccc2N1 [Kenpaullone]	inactive: 0
O=S(=O)(c1cccc2c(O)nccc12)N1CCCNCC1 [Hydroxyfasudil]	inactive: 0
CC(C)N(CCC(=O)c1ccc2ccccc2c1)Cc1ccccc1	inactive: 0
O=C(NCCCNc1nc(Nc2cccc(CN3CCOCC3)c2)ncc1C1CC1)C1CCC1	inactive: 0
CNC(=O)c1cc(Oc2ccc(NC(=O)Nc3ccc(Cl)c(C(F)(F)F)c3)cc2)ccn1 [Sorafenib (Tosylate)]	inactive: 0

Retrieved one by one from the entries so far:
SMILES	kinase-Nluc reporter destabilization hit call
CC(C)(C)n1nc(-c2ccc(Cl)cc2)c2c(N)ncnc21	inactive: 0
COc1ccc(-c2c[nH]c3nccc(-c4ccsc4)c23)c(OC)c1	inactive: 0
